Literature values as cited in US20040254094A1, “Suppression of cyclin kinase activity for prevention and treatment of infections” (priority 2000, published 2004).
At least one compound was matched to its structure with a doubt left.

System: CDK1/cyclin B
Details: cited from earlier work

For `NC1=NC(=O)/C(=C2\CCNC(=O)c3[nH]c(Br)cc32)N1` [Hymenialdisine], the IC50 is listed as 0.022 µM.
